These are yes or no findings as the source states them, for the method shown. For some assays here: Binding seen in cells or lysates may run through a third protein. Some entries that bind do so weakly or less than the wild type.
What was measured:
SorLA ectodomain [1] = molecular target: SorLA ectodomain (UniProt Q92673); assay: SPR; BIAcore3000; SorLA ectodomain immobilised on a CM5 chip at 56 fmol/mm^2; concentration series of HER3 (20-200 nM) or HER2 flowed over; 10 mM Hepes, pH 7.4/150 mM NaCl/5 mM CaCl2/0.005% Tween 20; both purified
SorLA ectodomain [2] = molecular target: SorLA ectodomain (UniProt Q92673); assay: SPR; BIAcore3000; SorLA ectodomain immobilised on a CM5 chip at 56 fmol/mm^2; concentration series of HER3 (20-200 nM) or HER2 flowed over; pH 5.0; both purified
SorLA ectodomain [3] = molecular target: SorLA ectodomain (UniProt Q92673); assay: SPR; BIAcore3000; SorLA ectodomain immobilised on a CM5 chip at 56 fmol/mm^2; concentration series of HER3 (20-200 nM) or HER2 flowed over; pH 6.0; both purified
SorLA-v1 = SorLA-v1 (UniProt Q92673); assay: split reporter; BiFC of Venus fragments v1 and v2 fused to the two proteins, coexpressed in BT-474 cells; confocal imaging of reconstituted Venus

Protein sequences, listed by entry. Tags and fused reporters are not part of them. Lines headed by an entry give the natural chain unless they say otherwise; changes in a name come on top. Residues count along the entry.
UniProt Q92673: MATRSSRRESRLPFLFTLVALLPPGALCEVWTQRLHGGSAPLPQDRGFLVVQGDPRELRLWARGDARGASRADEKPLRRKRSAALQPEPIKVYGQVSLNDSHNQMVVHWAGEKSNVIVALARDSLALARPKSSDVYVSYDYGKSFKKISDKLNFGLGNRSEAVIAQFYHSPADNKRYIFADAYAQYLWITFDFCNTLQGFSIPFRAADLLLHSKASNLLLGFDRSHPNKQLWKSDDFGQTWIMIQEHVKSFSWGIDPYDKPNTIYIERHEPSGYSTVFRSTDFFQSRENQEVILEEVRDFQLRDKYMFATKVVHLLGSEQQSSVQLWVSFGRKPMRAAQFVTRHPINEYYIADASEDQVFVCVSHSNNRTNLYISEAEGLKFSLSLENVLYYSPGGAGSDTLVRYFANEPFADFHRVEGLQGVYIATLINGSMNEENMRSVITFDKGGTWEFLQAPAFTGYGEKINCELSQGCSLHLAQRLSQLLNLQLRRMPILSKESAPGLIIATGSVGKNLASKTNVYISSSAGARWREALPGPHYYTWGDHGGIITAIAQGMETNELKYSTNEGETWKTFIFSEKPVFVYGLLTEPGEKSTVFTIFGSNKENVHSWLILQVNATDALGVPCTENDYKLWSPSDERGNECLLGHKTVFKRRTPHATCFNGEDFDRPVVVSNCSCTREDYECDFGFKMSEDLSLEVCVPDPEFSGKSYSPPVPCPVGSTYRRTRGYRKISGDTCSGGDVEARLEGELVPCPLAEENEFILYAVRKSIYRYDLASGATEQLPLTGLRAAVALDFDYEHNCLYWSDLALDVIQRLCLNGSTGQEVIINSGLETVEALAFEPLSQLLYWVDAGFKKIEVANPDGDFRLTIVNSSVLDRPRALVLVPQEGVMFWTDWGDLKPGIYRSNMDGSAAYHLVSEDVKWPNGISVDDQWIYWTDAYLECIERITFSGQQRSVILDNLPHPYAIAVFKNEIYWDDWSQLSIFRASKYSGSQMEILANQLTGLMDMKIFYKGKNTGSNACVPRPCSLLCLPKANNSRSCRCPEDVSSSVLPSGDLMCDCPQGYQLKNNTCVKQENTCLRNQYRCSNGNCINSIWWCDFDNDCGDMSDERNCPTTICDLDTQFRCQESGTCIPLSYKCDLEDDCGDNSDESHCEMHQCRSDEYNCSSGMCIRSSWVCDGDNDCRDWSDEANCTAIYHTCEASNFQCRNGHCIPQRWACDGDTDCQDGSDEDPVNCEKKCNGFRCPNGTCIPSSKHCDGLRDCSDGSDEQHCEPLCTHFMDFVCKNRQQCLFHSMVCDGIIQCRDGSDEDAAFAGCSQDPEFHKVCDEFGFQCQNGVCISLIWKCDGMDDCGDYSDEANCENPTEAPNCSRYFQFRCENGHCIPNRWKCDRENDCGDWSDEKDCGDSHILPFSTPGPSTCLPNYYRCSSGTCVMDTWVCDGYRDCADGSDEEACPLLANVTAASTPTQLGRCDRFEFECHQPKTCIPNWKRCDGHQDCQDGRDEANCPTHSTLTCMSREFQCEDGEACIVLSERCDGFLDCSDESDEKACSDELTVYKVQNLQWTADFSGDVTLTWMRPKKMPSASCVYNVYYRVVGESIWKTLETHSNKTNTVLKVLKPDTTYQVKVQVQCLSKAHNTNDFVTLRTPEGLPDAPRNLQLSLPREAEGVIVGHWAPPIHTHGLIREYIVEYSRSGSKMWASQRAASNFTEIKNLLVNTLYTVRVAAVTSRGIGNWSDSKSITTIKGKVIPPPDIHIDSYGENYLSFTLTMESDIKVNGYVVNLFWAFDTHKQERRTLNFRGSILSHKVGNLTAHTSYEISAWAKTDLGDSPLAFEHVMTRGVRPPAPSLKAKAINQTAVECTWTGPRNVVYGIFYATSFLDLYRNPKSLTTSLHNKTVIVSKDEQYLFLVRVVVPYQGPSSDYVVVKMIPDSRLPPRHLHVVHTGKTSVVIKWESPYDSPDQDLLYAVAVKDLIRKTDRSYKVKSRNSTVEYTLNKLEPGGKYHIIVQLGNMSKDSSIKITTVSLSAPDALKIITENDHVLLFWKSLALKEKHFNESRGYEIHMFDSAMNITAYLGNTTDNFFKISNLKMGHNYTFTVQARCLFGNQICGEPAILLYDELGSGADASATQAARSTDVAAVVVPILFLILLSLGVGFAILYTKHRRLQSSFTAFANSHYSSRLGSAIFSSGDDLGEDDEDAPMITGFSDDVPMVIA
SorLA-v1: residues 82-2214 of Q92673
SorLA ectodomain: residues 82-2137 of Q92673
UniProt P21860: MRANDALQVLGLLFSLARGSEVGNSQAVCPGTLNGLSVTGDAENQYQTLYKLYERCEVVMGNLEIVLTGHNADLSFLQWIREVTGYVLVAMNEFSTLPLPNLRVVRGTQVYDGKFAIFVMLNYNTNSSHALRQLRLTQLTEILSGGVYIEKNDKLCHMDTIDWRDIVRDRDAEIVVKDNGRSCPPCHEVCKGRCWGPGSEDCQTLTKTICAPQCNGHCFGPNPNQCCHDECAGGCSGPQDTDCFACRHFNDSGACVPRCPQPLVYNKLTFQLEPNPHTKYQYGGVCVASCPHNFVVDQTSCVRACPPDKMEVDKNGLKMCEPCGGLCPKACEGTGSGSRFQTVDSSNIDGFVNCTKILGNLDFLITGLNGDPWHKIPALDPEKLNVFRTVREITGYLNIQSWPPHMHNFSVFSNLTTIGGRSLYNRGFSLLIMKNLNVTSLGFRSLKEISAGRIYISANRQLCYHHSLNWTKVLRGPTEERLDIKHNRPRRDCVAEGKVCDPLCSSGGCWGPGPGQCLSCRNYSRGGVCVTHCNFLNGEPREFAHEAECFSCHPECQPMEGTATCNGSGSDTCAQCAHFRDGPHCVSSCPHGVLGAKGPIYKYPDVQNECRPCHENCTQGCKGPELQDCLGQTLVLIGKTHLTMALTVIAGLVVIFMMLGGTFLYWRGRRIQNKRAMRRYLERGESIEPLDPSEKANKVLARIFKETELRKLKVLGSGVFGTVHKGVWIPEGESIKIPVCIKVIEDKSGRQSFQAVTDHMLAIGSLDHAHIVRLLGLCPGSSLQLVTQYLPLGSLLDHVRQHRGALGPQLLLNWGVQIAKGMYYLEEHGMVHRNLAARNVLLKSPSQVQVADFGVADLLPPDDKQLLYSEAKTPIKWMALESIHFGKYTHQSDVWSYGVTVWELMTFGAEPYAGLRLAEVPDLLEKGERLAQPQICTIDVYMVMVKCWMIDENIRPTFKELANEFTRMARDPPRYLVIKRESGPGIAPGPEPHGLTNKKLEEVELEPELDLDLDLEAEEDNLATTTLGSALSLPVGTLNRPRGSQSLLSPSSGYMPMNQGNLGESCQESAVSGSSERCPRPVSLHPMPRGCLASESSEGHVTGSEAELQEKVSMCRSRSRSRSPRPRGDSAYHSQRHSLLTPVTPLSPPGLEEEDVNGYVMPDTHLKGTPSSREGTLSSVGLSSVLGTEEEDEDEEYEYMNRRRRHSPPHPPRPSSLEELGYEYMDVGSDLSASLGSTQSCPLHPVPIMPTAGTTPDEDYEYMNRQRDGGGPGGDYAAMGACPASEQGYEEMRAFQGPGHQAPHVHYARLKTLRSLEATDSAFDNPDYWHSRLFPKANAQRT

| Substance | binding (SorLA ectodomain [1]) | binding (SorLA ectodomain [2]) | binding (SorLA ectodomain [3]) | binding (SorLA-v1) |
| --- | --- | --- | --- | --- |
| HER2 ectodomain (ACRO Biosystems, HE2-H5212) (from UniProt P04626 23-652) (domain or fragment) | binds | binds | binds |  |
| HER2-v2 (from UniProt P04626 23-1255) (receptor) |  |  |  | binds |
| HER3 ectodomain (ACRO Biosystems, ER3-H5223) (from UniProt P21860 20-643) (domain or fragment) | binds | binds | binds |  |
| HER3-v2 (from UniProt P21860 20-1342) (receptor) |  |  |  | binds |
